Patent US20090142323A1, “METHODS FOR TREATING A DISORDER BY REGULATING GPRC6A” (priority 2007, published 2009)
At least one structure is not confirmed: it was looked up by name or label, or the drawing left a doubt.

Target: T1, GPRC6A (Mus musculus, UniProt Q8K4Z6)
T1 sequence (Q8K4Z6 21-928): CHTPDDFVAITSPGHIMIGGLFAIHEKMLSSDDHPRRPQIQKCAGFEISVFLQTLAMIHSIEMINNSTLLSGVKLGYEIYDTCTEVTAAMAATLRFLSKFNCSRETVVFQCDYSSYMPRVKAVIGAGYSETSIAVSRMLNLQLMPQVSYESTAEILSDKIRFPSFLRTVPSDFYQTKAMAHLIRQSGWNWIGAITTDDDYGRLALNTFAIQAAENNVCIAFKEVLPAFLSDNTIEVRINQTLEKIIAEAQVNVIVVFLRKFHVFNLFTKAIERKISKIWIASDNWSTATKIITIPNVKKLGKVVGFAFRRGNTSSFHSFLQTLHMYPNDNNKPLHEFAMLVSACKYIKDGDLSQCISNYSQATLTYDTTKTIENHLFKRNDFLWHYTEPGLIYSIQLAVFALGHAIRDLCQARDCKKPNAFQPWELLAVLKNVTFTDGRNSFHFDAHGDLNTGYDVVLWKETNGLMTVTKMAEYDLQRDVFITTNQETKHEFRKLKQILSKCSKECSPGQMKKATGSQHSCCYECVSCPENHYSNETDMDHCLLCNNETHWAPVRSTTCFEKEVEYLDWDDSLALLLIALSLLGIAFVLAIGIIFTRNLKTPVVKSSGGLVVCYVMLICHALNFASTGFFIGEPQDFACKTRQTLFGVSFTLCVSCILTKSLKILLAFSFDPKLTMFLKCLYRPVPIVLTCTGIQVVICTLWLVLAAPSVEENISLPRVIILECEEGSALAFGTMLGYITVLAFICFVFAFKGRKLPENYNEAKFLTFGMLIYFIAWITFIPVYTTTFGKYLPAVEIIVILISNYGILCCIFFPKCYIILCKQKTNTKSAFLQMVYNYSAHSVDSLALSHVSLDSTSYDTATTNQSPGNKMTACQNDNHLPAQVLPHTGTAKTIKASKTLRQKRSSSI
Assay: phospho-ERK activation in HEK-293 cells transfected with GPRC6A (immunoblot)
Format: cell-based
Design: expressed in transfected cells; host or cells: HEK-293
Procedure: Equal amounts of lysates were subjected to 10% SDS-PAGE, and phospho-ERK1/2 levels were determined by immunoblotting using antiphospho-ERK1/2 mitogen-activated protein kinase antibody (Cell Signaling Technology). […] An anti-peptide antibody was raised in a rabbit against a peptide ([…] (SEQ ID NO: 27)) corresponding to a sequence in the extracellular domain of mouse GPRC6A (in exon 1 of mouse GPRC6A gene) produced by Abgent (San Diego, Calif.). For phospho-ERK, the phospho-ERK1/2 levels were determined by immunoblotting using anti-phospho-ERK1/2 mitogen-activated protein kinase antibody (Cell Signaling Technology). Urinary β2-microglobulin was detected by rabbit polyclonal anti-β2-microglobulin antibody (Abcam Inc.). For aromatase expression analysis, the rabbit polyclonal anti-aromatase antibody (Abcam Inc.) and goat anti-rabbit IgG HRP secondary antibody (Santa Cruz Biotechnology Inc.) were used. Mouse anti-Actin antibody (Santa Cruz Biotechnology Inc.) was used for control protein loading.

Structure (SMILES): CC(C)C(=O)Nc1ccc([N+](=O)[O-])c(C(F)(F)F)c1 [flutamide]
- inhibition of GPRC6A-dependent testosterone activation of phospho-ERK (HEK-293 cells): nor inhibited
- GPRC6A-mediated activation of phospho-ERK (HEK-293 cells transfected with GPRC6A): neither stimulated phospho-ERK
